Measurements taken from PubChem BioAssay AID330 (DTP/NCI, 2004).
The list does not hold the whole screen: it gathers tests that were run many times, whatever their T/C, doses with no T/C, and many T/C values between a quarter and a half above the control. Other doses and runs of a compound stand elsewhere. T/C: endpoint of the treated group in % of that of the vehicle group. Some doses have a count of surviving animals in place of a T/C: the source files T/C as zero there, which appears to mark a toxic dose or a test without result, not a measured value. Some survivor counts are full or nearly so, which does not show that the dose was tolerated: the source hardly ever lists a survival T/C far under the control, and the zero likely stands for such cases as well. Survivors were counted at the toxicity check, usually on the fifth day, unless a day is given; later deaths do not show. Schedule codes are those of the source, read here as Q, the interval in days (D) or hours (H), X, the number of doses. Some doses were run more than once; the results are listed from low to high. Signs of the kind (2×) stand for listed records that agree. Where survival is the endpoint, the PubChem record calls one and a half times the control and up active, and a quarter to a half above the control has no call in these data; cut-offs in other NCI protocols can differ. Some T/C values carry the count of animals alive at the toxicity check (mostly the fifth day); without a count, all were alive then.

Tested on: P388 leukemia ip, CD2F1 mice, survival T/C
Experiment: NCI In Vivo Anticancer Drug Screen. Data for tumor model P388 Leukemia (intraperitoneal) in CD2F1 (CDF1) mice
Conditions: T/C endpoint: median survival time, higher T/C = longer survival
[1] = dose: 50.0 mg/kg/injection, schedule: Q01DX009 (ip), vehicle: saline with Tween-80
[2] = dose: 200.0 mg/kg/injection, schedule: Q01DX009 (ip), vehicle: saline with Tween-80
[3] = dose: 100.0 mg/kg/injection, schedule: Q01DX009 (ip), vehicle: Klucel (hydroxypropylcellulose) (HPC)
[4] = dose: 200.0 mg/kg/injection, schedule: Q01DX009 (ip), vehicle: Klucel (hydroxypropylcellulose) (HPC)
[5] = dose: 100.0 mg/kg/injection, schedule: Q04DX003 (ip), vehicle: saline with Tween-80
[6] = dose: 400.0 mg/kg/injection, schedule: Q04DX003 (ip), vehicle: saline with Tween-80
[7] = dose: 240.0 mg/kg/injection, schedule: Q01DX005 (ip), vehicle: saline with Tween-80
[8] = dose: 50.0 mg/kg/injection, schedule: Q01DX005 (ip), vehicle: saline with Tween-80
[9] = dose: 100.0 mg/kg/injection, schedule: Q01DX005 (ip), vehicle: saline with Tween-80
[10] = dose: 200.0 mg/kg/injection, schedule: Q01DX005 (ip), vehicle: saline with Tween-80
[11] = dose: 50.0 mg/kg/injection, schedule: Q01DX005 (ip), vehicle: Klucel (hydroxypropylcellulose) (HPC)
[12] = dose: 100.0 mg/kg/injection, schedule: Q01DX005 (ip), vehicle: Klucel (hydroxypropylcellulose) (HPC)
[13] = dose: 200.0 mg/kg/injection, schedule: Q01DX005 (ip), vehicle: Klucel (hydroxypropylcellulose) (HPC)
[14] = dose: 0.63 mg/kg/injection, schedule: Q01DX009 (ip), vehicle: Klucel (hydroxypropylcellulose) (HPC)

In the case of `O=C(NCCN(C(=O)C12CC3CC(CC(C3)C1)C2)c1ccc(F)cc1)C12CC3CC(CC(C3)C1)C2`, the survivor count [1] is reported as 6 of 6, the survivor count (dose: 100.0 mg/kg/injection, schedule: Q01DX009 (ip), vehicle: saline with Tween-80) is reported as 6 of 6 and the survivor count [2] is reported as 6 of 6.
`COc1ccccc1N=Cc1ccc(C=Nc2ccccc2OC)cc1` was tested, and the survivor count (dose: 50.0 mg/kg/injection, schedule: Q01DX009 (ip), vehicle: Klucel (hydroxypropylcellulose) (HPC)) was 6 of 6 and the survivor count [3] was 6 of 6.
In the case of `O=C(C(=O)C(F)(F)C(F)(F)C(F)(F)F)c1ccccc1`, the survivor count (dose: 200.0 mg/kg/injection, schedule: Q01DX005 (ip), vehicle: saline + Tween-80 + alcohol) is reported as 3 of 6.
`C=C1C(=O)OC2/C=C(/C)C3(O)OC(C)(CC(OC(=O)C(C)C)C12)CC3OC(C)=O` (stereo not given) was tested, and the survivor count [3] was 2 of 6 and the survivor count [4] was 0 of 6.
With `CCCC(C(=O)OCCN(CC)CC)(c1ccccc1)c1ccccc1` the survivor count [5] was 4 of 6, the survivor count (dose: 200.0 mg/kg/injection, schedule: Q04DX003 (ip), vehicle: saline with Tween-80) was 1 of 6 and the survivor count [6] was 0 of 6.
`CCCCCCCCCCCCCCCCC1=C(C(=O)OC)NC(N)=NC1O` (stereo not given) was tested, and the survivor count [7] was 0 of 6.
For `Cc1ncn2cnnc2c1C`, the survivor count [6] was 3 of 6.
With `Cc1cc(=O)n2c(nc3cc(C)c(C)cc32)s1` the survivor count [4] was 6 of 6.
`O=C1CN(c2ccccc2)C(=O)CN1/N=C/c1ccc[nH]1` was tested, and the survivor count [8] was 6 of 6, the survivor count [9] was 6 of 6 and the survivor count [10] was 6 of 6.
In the case of `O=C(O)c1cc2ccccc2c(N=Nc2cc(C(F)(F)F)ccc2Cl)c1O`, the survivor count [9] is reported as 5 of 5.
With `Cn1c(N)c(C(=O)Nc2ccccc2)c(=O)n(C)c1=O` the survivor count (dose: 400.0 mg/kg/injection, schedule: Q01DX001 (ip), vehicle: Klucel (hydroxypropylcellulose) (HPC)) was 6 of 6.
For `CCn1cnc2c(SC)ncnc21`, the survivor count (dose: 200.0 mg/kg/injection, schedule: Q04DX003 (ip), vehicle: other) was 0 of 6 and the survivor count (dose: 400.0 mg/kg/injection, schedule: Q04DX003 (ip), vehicle: other) was 0 of 6.
With `O=C(O)/C(Cl)=C(Cl)\C=N\c1ncn[nH]1` the survivor count [11] was 1 of 5, the survivor count [12] was 0 of 5 and the survivor count [13] was 0 of 5.
`COC1CC(CC2CCC(C)C(C(C)C(=O)O)O2)OC2(OC(C)(C3CCC(C)(C4OC(C5OC(O)(CO)C(C)CC5C)CC4C)O3)CC2C)C1C` (stereo not given) was tested, and the T/C [14] was 93, 96, 104 % of control, the survivor count [14] was 6 of 6 and the T/C (dose: 1.25 mg/kg/injection, schedule: Q01DX009 (ip), vehicle: Klucel (hydroxypropylcellulose) (HPC)) was 102, 104, 115, 125 % of control. For the same molecule, the survivor count (dose: 5.0 mg/kg/injection, schedule: Q01DX009 (ip), vehicle: Klucel (hydroxypropylcellulose) (HPC)) was 4 of 6 and 6 of 6.
In the case of `CNC(=O)OCc1c(COC(=O)NC)c(C)n(-c2ccc(OC)cc2)c1C`, the T/C (dose: 12.5 mg/kg/injection, schedule: Q01DX009 (ip), vehicle: Klucel (hydroxypropylcellulose) (HPC)) is reported as 136 % of control and the T/C (dose: 25.0 mg/kg/injection, schedule: Q01DX009 (ip), vehicle: Klucel (hydroxypropylcellulose) (HPC)) is reported as 142 % of control.
With `CN(C=O)C(C(=O)Nc1cccc2c(OC(=O)C(N(C)C=O)(N(C)C=O)N(C)C=O)c(N=Nc3ccc(S(=O)(=O)Nc4nccs4)cc3)cc(N=Nc3ccc(S(=O)(=O)Nc4nccs4)cc3)c12)(N(C)C=O)N(C)C=O` (tested in a mixture with another compound) the T/C [8] was 132 % of control, the T/C [9] was 135 % of control and the T/C [10] was 142 % of control. For the same molecule, the T/C (dose: 400.0 mg/kg/injection, schedule: Q01DX005 (ip), vehicle: saline with Tween-80, evaluated on day 20) was 149 % of control [4 of 5 alive] and the T/C (dose: 400.0 mg/kg/injection, schedule: Q01DX005 (ip), vehicle: saline with Tween-80, evaluated on day 30) was 126 % of control.
With `N/C(=N\N=C\c1cc(Br)cc(Br)c1O)N/N=C/c1cc(Br)cc(Br)c1O` the survivor count (dose: 100.0 mg/kg/injection, schedule: Q01DX009 (ip), vehicle: distilled water + Tween-80) was 5 of 6 and the survivor count (dose: 400.0 mg/kg/injection, schedule: Q01DX009 (ip), vehicle: distilled water + Tween-80) was 2 of 6.
For `CC(C)(C)N1COC2CCCC21` (stereo not given), the T/C (dose: 50.0 mg/kg/injection, schedule: Q01DX005 (ip), vehicle: saline, evaluated on day 20) was 134 % of control, the T/C (dose: 50.0 mg/kg/injection, schedule: Q01DX005 (ip), vehicle: saline, evaluated on day 30) was 127 % of control and the T/C (dose: 100.0 mg/kg/injection, schedule: Q01DX005 (ip), vehicle: saline, evaluated on day 20) was 134 % of control. For the same molecule, the T/C (dose: 100.0 mg/kg/injection, schedule: Q01DX005 (ip), vehicle: saline, evaluated on day 30) was 128 % of control and the survivor count (dose: 200.0 mg/kg/injection, schedule: Q01DX005 (ip), vehicle: saline) was 3 of 6.
With `O=C(Cc1n[nH]c(=S)nc1CC(=O)c1cccnc1)c1cccnc1` the survivor count [7] was 0 of 6.
For `Cc1ccc2cccc(OC(=O)Nc3ccc(Cl)c(Cl)c3)c2n1`, the survivor count [2] was 5 of 6.
With `CCOC(=O)C(CC)Oc1ccc(Cl)cc1` (stereo not given) the survivor count [4] was 0 of 6.
In the case of `NP(=O)(OCCC(=O)c1ccccc1)N(CCCl)CCCl` (stereo not given), the survivor count (dose: 200.0 mg/kg/injection, schedule: Q04DX002 (ip), vehicle: saline with Tween-80) is reported as 5 of 6 and the survivor count (dose: 400.0 mg/kg/injection, schedule: Q04DX002 (ip), vehicle: saline with Tween-80) is reported as 5 of 5.
In the case of `Clc1ccc(-c2noc(/C=C\c3ccccc3)n2)cc1`, the survivor count [3] is reported as 6 of 6.
In the case of `C=C1N=NN(c2cccc(C(F)(F)F)c2)C1N1CCOCC1` (stereo not given), the survivor count [7] is reported as 3 of 6.
For `CCCCCC(=O)C(=O)c1ccc(O)c(C)c1O`, the survivor count [4] was 6 of 6.
In the case of `C=C1C(C)C2C(Cc3ccccc3)NC(=O)C23OC(=O)/C=C\CC(=O)CCC(C)C/C=C/C3C1O` (stereo not given), the survivor count (dose: 20.0 mg/kg/injection, schedule: Q01DX009 (ip), vehicle: Klucel (hydroxypropylcellulose) (HPC)) is reported as 1 of 6 and the survivor count (dose: 40.0 mg/kg/injection, schedule: Q01DX009 (ip), vehicle: Klucel (hydroxypropylcellulose) (HPC)) is reported as 0 of 6.
With `CC(NNC(=S)N1CCC(c2ccccc2)CC1)c1cc2ccccc2cn1` (stereo not given) the survivor count [8] was 6 of 6, the survivor count [9] was 3 of 6 and the survivor count [10] was 0 of 6.
With `C=C1C(=O)C2=CC1CCC(=O)C1(C)C(OC(C)=O)CC(OC(C)=O)C(C)(C)C1CC2O` (stereo not given) the survivor count (dose: 140.0 mg/kg/injection, schedule: Q01DX005 (ip), vehicle: Klucel (hydroxypropylcellulose) (HPC)) was 0 of 6.
In the case of `CN(C)S(=O)(=O)CCNC(=O)N(CCCl)N=O`, the T/C (dose: 5.0 mg/kg/injection, schedule: Q01DX005 (ip), vehicle: saline) is reported as 143 % of control.
With `CN(N=O)C(=O)NCCSSCCNC(=O)N(C)N=O` the T/C (dose: 20.0 mg/kg/injection, schedule: Q01DX009 (ip), vehicle: saline with Tween-80) was 136 % of control, the T/C (dose: 40.0 mg/kg/injection, schedule: Q04DX003 (ip), vehicle: saline with Tween-80) was 130 % of control and the T/C (dose: 52.8 mg/kg/injection, schedule: Q04DX003 (ip), vehicle: saline with Tween-80) was 131 % of control. For the same molecule, the survivor count (dose: 80.0 mg/kg/injection, schedule: Q01DX009 (ip), vehicle: saline with Tween-80) was 6 of 6, the T/C (dose: 80.0 mg/kg/injection, schedule: Q04DX003 (ip), vehicle: saline with Tween-80) was 136 % of control and the survivor count (dose: 120.0 mg/kg/injection, schedule: Q04DX003 (ip), vehicle: saline with Tween-80) was 6 of 6.
With `C[N-]N(C)C(=O)[S-].C[N-]N(C)C(=O)[S-].C[N-]N(C)C(=O)[S-].[Co]` the survivor count [5] was 5 of 6.
With `COc1cc2c(cc1OC)[C@@H]1C(=O)c3ccc4c(c3O[C@@H]1CO2)C[C@H](C(C)C)O4` the T/C (dose: 25.0 mg/kg/injection, schedule: Q01DX005 (ip), vehicle: Klucel (hydroxypropylcellulose) (HPC)) was 127 and 137 % of control, the T/C [11] was 126 [4 of 6 alive] and 130 % of control [5 of 6 alive] and the survivor count [11] was 0 of 6. For the same molecule, the survivor count [12] was 0 of 6 (2×) and 6 of 6 and the survivor count [13] was 0 of 6 (2×).
For `C#CC(=O)O`, the survivor count [1] was 6 of 6.
